Results as given in the supplement of paper PMC10849652.
The list shows a part of the results.

Amino acid sequences for entries named in this document (tags omitted). A change or cut given only in a name is not applied to a line headed by its entry.
UniProt Q9NRG9: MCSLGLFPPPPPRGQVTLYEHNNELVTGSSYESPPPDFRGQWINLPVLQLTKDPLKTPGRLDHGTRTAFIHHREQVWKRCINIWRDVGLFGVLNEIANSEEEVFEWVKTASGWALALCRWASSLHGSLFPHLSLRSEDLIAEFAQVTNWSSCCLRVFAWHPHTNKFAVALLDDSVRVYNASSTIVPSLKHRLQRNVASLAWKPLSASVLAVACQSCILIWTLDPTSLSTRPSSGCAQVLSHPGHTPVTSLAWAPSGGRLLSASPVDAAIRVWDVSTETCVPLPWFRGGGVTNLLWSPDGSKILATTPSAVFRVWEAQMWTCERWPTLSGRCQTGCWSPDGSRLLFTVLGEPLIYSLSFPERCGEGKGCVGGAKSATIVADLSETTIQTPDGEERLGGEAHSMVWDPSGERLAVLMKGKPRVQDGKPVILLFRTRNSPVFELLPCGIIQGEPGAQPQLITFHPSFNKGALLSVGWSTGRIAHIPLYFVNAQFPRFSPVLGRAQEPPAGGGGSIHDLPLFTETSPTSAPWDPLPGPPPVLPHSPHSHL
UniProt O43707, whole entry, looked up: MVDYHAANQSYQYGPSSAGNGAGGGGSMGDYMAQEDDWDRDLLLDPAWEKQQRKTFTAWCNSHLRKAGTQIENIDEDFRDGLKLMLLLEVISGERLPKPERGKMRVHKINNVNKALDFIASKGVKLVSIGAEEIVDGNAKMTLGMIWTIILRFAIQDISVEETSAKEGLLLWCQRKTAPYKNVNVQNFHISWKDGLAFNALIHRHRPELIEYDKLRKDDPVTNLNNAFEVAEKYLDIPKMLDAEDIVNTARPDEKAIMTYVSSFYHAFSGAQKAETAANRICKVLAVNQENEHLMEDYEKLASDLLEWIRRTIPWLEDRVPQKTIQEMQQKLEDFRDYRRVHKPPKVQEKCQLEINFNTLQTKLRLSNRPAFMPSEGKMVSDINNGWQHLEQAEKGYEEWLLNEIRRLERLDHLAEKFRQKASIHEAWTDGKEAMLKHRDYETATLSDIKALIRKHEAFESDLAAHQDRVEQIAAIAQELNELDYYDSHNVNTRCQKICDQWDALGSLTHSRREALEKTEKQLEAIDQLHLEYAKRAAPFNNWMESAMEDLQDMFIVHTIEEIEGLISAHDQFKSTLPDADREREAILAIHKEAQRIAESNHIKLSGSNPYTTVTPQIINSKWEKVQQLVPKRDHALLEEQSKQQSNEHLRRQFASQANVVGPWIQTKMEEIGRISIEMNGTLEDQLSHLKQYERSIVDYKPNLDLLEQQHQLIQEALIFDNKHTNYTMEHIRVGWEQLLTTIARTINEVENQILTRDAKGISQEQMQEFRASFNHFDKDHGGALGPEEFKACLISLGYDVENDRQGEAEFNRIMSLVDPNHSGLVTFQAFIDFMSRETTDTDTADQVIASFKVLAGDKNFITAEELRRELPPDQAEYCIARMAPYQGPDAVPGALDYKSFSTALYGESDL
UniProt P55265: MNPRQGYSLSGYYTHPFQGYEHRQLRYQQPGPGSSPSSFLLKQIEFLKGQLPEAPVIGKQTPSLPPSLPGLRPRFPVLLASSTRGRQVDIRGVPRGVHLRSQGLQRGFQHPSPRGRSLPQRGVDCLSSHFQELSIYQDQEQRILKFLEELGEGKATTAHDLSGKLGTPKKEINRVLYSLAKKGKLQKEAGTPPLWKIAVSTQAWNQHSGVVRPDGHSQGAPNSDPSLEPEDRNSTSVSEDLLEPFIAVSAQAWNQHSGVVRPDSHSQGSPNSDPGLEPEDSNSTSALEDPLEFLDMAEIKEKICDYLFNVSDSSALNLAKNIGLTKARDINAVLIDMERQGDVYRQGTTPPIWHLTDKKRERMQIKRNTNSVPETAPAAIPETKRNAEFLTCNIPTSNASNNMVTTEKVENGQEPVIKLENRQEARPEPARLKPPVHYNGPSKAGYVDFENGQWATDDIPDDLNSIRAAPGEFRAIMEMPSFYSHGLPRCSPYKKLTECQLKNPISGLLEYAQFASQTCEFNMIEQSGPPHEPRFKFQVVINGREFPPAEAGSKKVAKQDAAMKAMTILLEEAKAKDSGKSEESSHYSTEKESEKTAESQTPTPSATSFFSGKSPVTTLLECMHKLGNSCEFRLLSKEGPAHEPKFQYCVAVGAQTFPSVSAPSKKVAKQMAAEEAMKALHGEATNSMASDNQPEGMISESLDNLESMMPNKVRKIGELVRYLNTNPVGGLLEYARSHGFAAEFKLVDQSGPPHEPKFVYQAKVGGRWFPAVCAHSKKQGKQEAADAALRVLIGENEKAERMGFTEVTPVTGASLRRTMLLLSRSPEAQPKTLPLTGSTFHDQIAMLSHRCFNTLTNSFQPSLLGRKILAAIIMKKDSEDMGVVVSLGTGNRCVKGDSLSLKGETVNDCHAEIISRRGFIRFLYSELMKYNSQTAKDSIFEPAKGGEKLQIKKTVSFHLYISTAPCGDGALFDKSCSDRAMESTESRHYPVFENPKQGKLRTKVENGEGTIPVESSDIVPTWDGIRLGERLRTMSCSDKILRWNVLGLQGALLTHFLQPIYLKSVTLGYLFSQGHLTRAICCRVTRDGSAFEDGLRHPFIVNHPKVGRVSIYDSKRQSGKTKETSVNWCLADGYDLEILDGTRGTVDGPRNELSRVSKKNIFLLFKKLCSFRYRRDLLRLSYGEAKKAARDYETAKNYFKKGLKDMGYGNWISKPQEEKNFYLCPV
UniProt Q96EY9: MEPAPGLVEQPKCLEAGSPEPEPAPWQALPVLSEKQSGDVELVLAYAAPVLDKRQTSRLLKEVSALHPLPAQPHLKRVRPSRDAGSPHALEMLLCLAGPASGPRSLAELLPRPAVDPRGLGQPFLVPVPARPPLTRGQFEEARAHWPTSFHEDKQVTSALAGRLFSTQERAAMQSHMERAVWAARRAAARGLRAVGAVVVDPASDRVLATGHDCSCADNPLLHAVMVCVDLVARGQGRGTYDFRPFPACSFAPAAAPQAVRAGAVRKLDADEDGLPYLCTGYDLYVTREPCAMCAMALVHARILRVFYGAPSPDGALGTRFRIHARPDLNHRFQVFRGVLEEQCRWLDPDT
UniProt Q9GZN1, whole entry, looked up: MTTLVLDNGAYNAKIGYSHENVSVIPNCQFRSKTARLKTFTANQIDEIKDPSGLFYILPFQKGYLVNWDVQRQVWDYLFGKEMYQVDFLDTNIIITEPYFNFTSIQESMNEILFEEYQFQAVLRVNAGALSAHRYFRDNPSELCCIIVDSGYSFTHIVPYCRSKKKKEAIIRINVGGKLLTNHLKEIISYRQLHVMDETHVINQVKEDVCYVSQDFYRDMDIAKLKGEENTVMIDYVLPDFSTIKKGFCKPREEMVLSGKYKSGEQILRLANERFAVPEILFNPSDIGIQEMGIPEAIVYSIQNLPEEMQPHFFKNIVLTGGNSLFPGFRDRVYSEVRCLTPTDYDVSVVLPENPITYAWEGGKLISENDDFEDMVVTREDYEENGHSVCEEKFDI
UniProt O14672: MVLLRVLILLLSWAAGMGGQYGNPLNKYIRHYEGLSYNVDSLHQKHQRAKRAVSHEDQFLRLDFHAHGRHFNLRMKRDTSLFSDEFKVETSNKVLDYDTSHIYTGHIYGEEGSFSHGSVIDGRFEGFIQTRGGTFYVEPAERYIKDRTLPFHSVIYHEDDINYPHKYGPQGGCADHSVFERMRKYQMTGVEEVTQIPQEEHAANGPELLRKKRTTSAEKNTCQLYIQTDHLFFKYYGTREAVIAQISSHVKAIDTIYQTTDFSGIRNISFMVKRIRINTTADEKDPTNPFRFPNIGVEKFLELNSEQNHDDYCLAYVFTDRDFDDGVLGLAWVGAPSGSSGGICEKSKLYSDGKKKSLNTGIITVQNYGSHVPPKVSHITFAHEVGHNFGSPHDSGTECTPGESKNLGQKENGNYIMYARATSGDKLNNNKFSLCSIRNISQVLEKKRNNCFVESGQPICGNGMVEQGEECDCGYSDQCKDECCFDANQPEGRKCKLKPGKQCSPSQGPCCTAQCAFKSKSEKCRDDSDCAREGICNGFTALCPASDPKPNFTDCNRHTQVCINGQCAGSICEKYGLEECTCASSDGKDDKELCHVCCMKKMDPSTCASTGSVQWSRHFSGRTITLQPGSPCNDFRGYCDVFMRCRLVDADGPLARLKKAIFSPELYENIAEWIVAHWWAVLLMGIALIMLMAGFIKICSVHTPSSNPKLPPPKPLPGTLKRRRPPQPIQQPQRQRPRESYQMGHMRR

Assays:
Assay in all cases: log2 fold change, soluble protein after heating vs DMSO (PISA); higher = thermal stabilisation; K562 cells, 10 uM, 30 min; active = over 0.2 and 3.5 SD of the protein, either way, in both replicates (recomputed)
[1] = compound: CC[C@@H]1C(=O)N(C)c2cnc(Nc3ccc(C(=O)NC4CCN(C)CC4)cc3OC)nc2N1C1CCCC1
Procedure, shortened: (§1)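 Soluble protein was quantified by TMTpro 16plex LC-MS/MS after channel sums were equalised. It was obtained as the supernatant after 21,000xg for 90 min from pooled aliquots of K562 cells (2×10^6 cells/mL, 10 μM compound, 30 min) heated for 3 min across 48°C-58°C and extracted in PBS with 0.5% NP-40 at 4°C. Thermal stability values are relative to control samples and come from duplicates. They are given as log2 fold changes.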

volasertib = compound: CC[C@@H]1C(=O)N(C)c2cnc(Nc3ccc(C(=O)N[C@H]4CC[C@H](N5CCN(CC6CC6)CC5)CC4)cc3OC)nc2N1C(C)C [volasertib]
Procedure, shortened: as §1

[2] = compound: CC[C@H](C)N1C=C(C2=C(C=C(C=C21)C3=CN=C(C=C3)N4CCNCC4)C(=O)NCC5=C(C=C(NC5=O)C)C)C
Procedure, shortened: as §1

epoxomicin = compound: CC[C@H](C)[C@@H](C(=O)N[C@@H]([C@@H](C)O)C(=O)N[C@@H](CC(C)C)C(=O)[C@]1(CO1)C)NC(=O)[C@H]([C@@H](C)CC)N(C)C(=O)C [epoxomicin]
Procedure, shortened: as §1

[3] = compound: CCn1c(C(=O)N(C2CC2)C2CC2)cc2c3c(ncn3C)c(Nc3cc(C)n(C)n3)nc21
Procedure, shortened: as §1

[4] = compound: CCn1cc(-c2ccnc3[nH]c(-c4cccc(CN(C)C)c4)cc23)c(-c2ccc(NC(=O)N(C)C)cc2)n1
Procedure, shortened: as §1

[5] = compound: CN(C)CC(=O)Nc1ccc2[nH]c(=O)c3ccccc3c2c1
Procedure, shortened: as §1

rosiglitazone = compound: CN(CCOC1=CC=C(C=C1)C[C@H]2C(=O)NC(=O)S2)C3=CC=CC=N3 (racemic) [rosiglitazone]
Procedure, shortened: as §1

[6] = compound: CN1C2=C(C3=C1C(=O)N(N=C3)CC4=CC(=CC=C4)N)SC(=C2)S(=O)C
Procedure, shortened: as §1

[7] = compound: CN1CCC(CNc2ccc3ncc(-c4cccc(OC(F)(F)F)c4)n3n2)CC1
Procedure, shortened: as §1

Measured: log2 fold change

AAAS (UniProt Q9NRG9)
inactive: [1] -0.078 | volasertib -0.122 | [2] 0.022 | epoxomicin 0.095 | [3] -0.002 | [4] -0.053 | [5] 0.032 | rosiglitazone -0.008 | [6] -0.086 | [7] -0.028

ACTN4 (UniProt O43707)
inactive: [1] 0.035 | volasertib -0.015 | [2] -0.027 | epoxomicin -0.063 | [3] 0.02 | [4] -0.014 | [5] -0.033 | rosiglitazone 0 | [6] -0.069 | [7] 0.095

ACACA isoform 4 (UniProt Q13085)
inactive: [1] 0.101 | volasertib -0.373 | [2] 0.067 | epoxomicin -0.092 | [3] -0.092 | [4] 0.058 | [5] 0.073 | rosiglitazone 0.118 | [6] 0.285 | [7] 0.04

ADAR isoform 4 (UniProt P55265)
inactive: [1] 0.118 | volasertib -0.063 | [2] -0.073 | epoxomicin -0.185 | [3] 0.044 | [4] 0.102 | [5] -0.072 | rosiglitazone 0.294 | [6] 0.094 | [7] 0.068

ADAT3 (UniProt Q96EY9)
inactive: [1] -0.011 | volasertib 0.014 | [2] 0.047 | epoxomicin -0.026 | [3] -0.021 | [4] -0.102 | [5] -0.059 | rosiglitazone 0.04 | [6] -0.147 | [7] 0.088

ACTR6 (UniProt Q9GZN1)
inactive: [1] 0.018 | volasertib -0.191 | [2] 0.071 | epoxomicin 0.084 | [3] 0.021 | [4] -0.007 | [5] 0.021 | rosiglitazone 0.152 | [6] 0.042 | [7] -0.018

ADAM10 (UniProt O14672)
inactive: [1] 0.037 | volasertib -0.046 | [2] -0.026 | epoxomicin -0.037 | [3] -0.016 | [4] -0.063 | [5] -0.045 | rosiglitazone 0.005 | [6] -0.041 | [7] 0.072

Copied from the entries so far (2 entries):
ADAR isoform 4 (UniProt P55265)
inactive: [1] 0.118 | volasertib -0.063 | [2] -0.073 | epoxomicin -0.185 | [3] 0.044 | [4] 0.102 | [5] -0.072 | rosiglitazone 0.294 | [6] 0.094 | [7] 0.068

ADAT3 (UniProt Q96EY9)
inactive: [1] -0.011 | volasertib 0.014 | [2] 0.047 | epoxomicin -0.026 | [3] -0.021 | [4] -0.102 | [5] -0.059 | rosiglitazone 0.04 | [6] -0.147 | [7] 0.088
